Results are given in words; binding and its absence hold for the method and conditions named. In cells and extracts the contact can be indirect. Some entries that bind do so weakly or less than the wild type. Each block holds one substance with its values, some of them ahead of it.
Tests used:
[1] = target: FLAG-CAMDI (coiled-coil protein associated with MRLC IIa and DISC1), mouse full-length (mouse) (UniProt E9Q8Q6); assay: co-IP; HeLa cells cotransfected with FLAG-CAMDI and EGFP-Cdc20; lysate in Nonidet P-40 lysis buffer (20 mM Tris HCl pH 7.2, 2 mM EDTA, 0.5% NP-40, 8% sucrose, 80 mM DTT); immunoprecipitation with anti-FLAG (Fig. 4A) or anti-EGFP (Fig. 4B) antibody, immunoblot
[2] = target: FLAG-CAMDI (coiled-coil protein associated with MRLC IIa and DISC1), mouse full-length (mouse) (UniProt E9Q8Q6); assay: co-IP; HeLa cells transfected with FLAG-CAMDI alone; immunoprecipitation and immunoblot for endogenous partners (Fig. 4C, 4E); Nonidet P-40 lysis buffer
[3] = target: endogenous CAMDI (cortical neurons) (mouse (endogenous in cortical neurons)) (UniProt E9Q8Q6); assay: co-IP; endogenous proteins in cortical neurons (Fig. S7); details not shown
[4] = target: EGFP-Cdc20 (cell division cycle protein 20) (UniProt Q9JJ66); assay: co-IP; HeLa cells cotransfected with FLAG-CAMDI and EGFP-Cdc20; lysate in Nonidet P-40 lysis buffer (20 mM Tris HCl pH 7.2, 2 mM EDTA, 0.5% NP-40, 8% sucrose, 80 mM DTT); immunoprecipitation with anti-FLAG (Fig. 4A) or anti-EGFP (Fig. 4B) antibody, immunoblot

Sequences of proteins named here, by UniProt entry; tags and fusion partners are left off.
UniProt E9Q8Q6: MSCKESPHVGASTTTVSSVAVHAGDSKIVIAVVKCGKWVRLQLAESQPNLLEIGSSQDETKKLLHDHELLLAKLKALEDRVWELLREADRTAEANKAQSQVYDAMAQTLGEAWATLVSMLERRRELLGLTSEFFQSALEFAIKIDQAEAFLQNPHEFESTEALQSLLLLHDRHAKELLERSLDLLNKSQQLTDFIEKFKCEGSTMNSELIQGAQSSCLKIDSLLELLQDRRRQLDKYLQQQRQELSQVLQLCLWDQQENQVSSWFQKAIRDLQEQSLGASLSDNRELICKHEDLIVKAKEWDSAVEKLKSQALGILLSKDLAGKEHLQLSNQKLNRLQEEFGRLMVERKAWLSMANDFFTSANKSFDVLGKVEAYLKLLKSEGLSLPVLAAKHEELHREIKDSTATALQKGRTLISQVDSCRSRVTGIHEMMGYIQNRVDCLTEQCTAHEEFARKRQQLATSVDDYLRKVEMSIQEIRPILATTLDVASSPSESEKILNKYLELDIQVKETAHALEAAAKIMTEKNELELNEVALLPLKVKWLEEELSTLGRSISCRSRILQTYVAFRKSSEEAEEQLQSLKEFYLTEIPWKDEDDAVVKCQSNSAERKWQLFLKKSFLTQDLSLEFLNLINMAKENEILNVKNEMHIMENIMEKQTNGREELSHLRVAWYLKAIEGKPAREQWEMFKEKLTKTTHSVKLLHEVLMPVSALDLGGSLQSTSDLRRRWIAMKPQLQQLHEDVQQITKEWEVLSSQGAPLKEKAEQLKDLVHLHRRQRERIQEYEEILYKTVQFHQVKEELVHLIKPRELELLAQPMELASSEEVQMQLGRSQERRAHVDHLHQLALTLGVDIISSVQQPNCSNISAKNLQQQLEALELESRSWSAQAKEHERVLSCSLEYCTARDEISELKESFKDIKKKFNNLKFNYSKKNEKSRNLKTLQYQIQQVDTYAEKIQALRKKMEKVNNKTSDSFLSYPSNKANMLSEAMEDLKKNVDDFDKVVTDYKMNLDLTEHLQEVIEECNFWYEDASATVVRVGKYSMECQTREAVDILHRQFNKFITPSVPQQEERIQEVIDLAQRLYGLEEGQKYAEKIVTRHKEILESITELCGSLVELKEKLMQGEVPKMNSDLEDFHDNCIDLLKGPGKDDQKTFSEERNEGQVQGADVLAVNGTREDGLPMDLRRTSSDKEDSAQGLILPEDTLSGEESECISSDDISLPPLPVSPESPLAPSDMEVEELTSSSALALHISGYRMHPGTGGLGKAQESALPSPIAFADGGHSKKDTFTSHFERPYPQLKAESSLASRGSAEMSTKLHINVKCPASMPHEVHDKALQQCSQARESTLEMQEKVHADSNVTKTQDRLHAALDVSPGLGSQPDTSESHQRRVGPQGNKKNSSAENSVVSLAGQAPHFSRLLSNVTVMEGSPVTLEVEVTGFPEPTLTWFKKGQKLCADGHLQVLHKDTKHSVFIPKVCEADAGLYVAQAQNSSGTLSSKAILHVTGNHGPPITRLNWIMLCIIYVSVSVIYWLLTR
UniProt Q9JJ66: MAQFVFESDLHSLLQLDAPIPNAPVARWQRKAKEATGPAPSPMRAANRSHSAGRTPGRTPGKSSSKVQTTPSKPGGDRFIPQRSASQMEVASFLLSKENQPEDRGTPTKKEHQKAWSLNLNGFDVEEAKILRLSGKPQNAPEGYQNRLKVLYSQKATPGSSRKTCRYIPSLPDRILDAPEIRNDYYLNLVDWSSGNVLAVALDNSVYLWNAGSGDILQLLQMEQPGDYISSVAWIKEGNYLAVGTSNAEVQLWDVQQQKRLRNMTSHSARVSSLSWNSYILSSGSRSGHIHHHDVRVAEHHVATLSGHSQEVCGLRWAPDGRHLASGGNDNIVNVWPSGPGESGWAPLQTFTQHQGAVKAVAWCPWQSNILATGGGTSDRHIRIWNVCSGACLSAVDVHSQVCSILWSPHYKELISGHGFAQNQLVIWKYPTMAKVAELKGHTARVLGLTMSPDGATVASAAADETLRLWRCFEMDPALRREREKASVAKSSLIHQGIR
UniProt Q12834: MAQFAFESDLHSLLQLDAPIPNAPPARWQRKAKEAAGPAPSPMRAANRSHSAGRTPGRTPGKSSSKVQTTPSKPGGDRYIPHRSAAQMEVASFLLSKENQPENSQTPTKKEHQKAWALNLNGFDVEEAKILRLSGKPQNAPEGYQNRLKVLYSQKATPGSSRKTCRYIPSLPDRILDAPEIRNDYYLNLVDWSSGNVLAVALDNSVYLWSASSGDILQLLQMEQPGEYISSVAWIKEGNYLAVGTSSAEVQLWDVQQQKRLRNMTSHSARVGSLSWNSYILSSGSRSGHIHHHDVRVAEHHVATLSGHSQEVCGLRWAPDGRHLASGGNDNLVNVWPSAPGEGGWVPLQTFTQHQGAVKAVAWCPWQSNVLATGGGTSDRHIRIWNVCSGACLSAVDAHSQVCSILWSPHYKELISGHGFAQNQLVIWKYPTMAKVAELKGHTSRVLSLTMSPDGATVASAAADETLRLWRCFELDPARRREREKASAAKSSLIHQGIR

binding [1]: binds
Substance: EGFP-Cdc20 (cell division cycle protein 20) (from UniProt Q9JJ66 1-499)

binding [2]: binds
Substance: endogenous Cdc20 (HeLa) (from UniProt Q12834 1-499)

binding [3]: binds
Substance: endogenous Cdc20 (cortical neurons) (from UniProt Q9JJ66 1-499)

binding [4]: binds
Substance: FLAG-CAMDI (coiled-coil protein associated with MRLC IIa and DISC1), mouse full-length (from UniProt E9Q8Q6 1-1531)

Reference: paper PMC8353494
